Literature values as cited in PMC9149975, “The diaryl-imidazopyridazine anti-plasmodial compound, MMV652103, exhibits anti-breast cancer activity” (EXCLI Journal, 2022).

Tested on: MCF7 cells
Set-up: method as in Yang et al., 2013
Conditions: ref Yang et al., 2013, read-out: reported IC50 of doxorubicin; cited from earlier work

## COc1cccc2c1C(=O)c1c(O)c3c(c(O)c1C2=O)C[C@@](O)(C(=O)CO)C[C@@H]3O[C@H]1C[C@H](N)[C@H](O)[C@H](C)O1 [Doxorubicin, reference compound]
  IC50: 9.84 nM
